The campaign covered roughly 390,000 compounds. About 820 (0.21%) were called active. The shares of active, inactive and inconclusive entries below differ from those in the screen. The call rests on the fitted dose curve; in most records, active means well fitted inhibition curve with a large enough effect; inconclusive means small, poorly fitted or top-dose-only effect, or another doubt; inactive means no such curve, though single readings can be large or run the other way. Potencies of inconclusive entries are doubtful fits and often do not repeat.
Each compound was assayed against Histone acetyltransferase KAT2A (Homo sapiens) (UniProt Q92830) (assay: qHTS Assay for Inhibitors of GCN5L2). Details: GCN5L2 HAT assay, ThioGlo1 CoA-SH fluorescence; activity change, negative = inhibition: at 58.9 µM (top of the series) unless noted.
How it was run: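 Titration-based screen in which CoA formation is detected via maleimide probe ThioGlo1 (50uM) turning fluorescent on thiol reaction; substrates H3(1-25) 75uM and acetyl-CoA 70uM, GCN5L2 20nM, 20 min incubation at room temperature.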
On the % scale 0 is the no-effect control and ±100 the full control effect; potency means the concentration at half of the fitted maximal effect.

Protein sequences, listed by entry. Tags and fused reporters are not part of them.
UniProt Q92830, whole entry, looked up: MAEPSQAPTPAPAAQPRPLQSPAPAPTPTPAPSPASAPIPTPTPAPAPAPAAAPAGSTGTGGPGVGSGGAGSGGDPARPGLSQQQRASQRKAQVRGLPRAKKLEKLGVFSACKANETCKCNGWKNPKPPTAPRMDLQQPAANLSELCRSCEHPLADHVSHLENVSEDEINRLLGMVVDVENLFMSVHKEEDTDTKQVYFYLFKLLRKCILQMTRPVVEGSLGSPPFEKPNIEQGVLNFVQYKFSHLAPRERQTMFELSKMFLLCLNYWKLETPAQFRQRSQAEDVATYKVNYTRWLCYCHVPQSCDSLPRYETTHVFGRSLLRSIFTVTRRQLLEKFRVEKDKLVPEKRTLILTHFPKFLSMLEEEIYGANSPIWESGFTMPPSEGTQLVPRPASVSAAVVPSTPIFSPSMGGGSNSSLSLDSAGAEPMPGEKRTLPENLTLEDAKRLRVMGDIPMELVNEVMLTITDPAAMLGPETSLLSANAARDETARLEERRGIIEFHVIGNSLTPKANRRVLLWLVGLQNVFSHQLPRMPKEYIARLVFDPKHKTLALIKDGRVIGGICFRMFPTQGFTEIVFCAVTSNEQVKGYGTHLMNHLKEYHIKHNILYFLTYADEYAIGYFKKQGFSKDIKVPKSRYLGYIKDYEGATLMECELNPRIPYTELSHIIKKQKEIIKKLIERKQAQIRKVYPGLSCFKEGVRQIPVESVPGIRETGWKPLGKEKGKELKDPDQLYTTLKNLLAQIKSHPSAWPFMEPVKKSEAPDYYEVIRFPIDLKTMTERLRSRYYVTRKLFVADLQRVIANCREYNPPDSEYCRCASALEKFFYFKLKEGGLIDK

| SMILES | activity change, negative = inhibition | Potency |
| --- | --- | --- |
| O=S(=O)(c1ccccc1)c1nc(-c2ccc(Cl)cc2Cl)oc1N1CCCCCC1 | inactive: -7.45% |  |
| COc1ccc(OCC(=O)N/N=C(\C)CC(=O)Nc2ccc(NC(C)=O)cc2)cc1 |  | inconclusive: 1.41 µM [inhibitor, full curve, poor fit] |
| CCOC(=O)C1(CCc2ccccc2)CCN(Cc2cccc3nccnc23)CC1 |  | inconclusive: 28.2 µM [inhibitor, single point] |
| CCCc1cc(=O)[nH]c2nnc(SCC(=O)Nc3nccs3)n12 | inactive: 0.183% |  |
| Cc1cc(N2CCCC2=O)ccc1S(=O)(=O)Nc1c(C)nn(C)c1C |  | inconclusive: 39.8 µM [inhibitor, single point] |
| Clc1nssc1=Nc1ccc(Br)cc1 |  | active: 8.91 µM |
| CC(C)NS(=O)(=O)c1ccc2nc(NC(=O)c3cncc(Br)c3)sc2c1 |  | inconclusive: 39.8 µM [inhibitor, single point] |
| Cc1ccc(Cn2nnc(C(=O)Nc3ccc(F)c(F)c3)c2N)cc1 |  | inconclusive: 22.4 µM [inhibitor, single point] |
| O=c1oc(-c2ccc(C(F)(F)F)cc2)nn1Cc1cc(Cl)ccc1O | inactive: 7.45% |  |
| COc1cc(C(c2c(C(=O)O)[nH]c3ccccc23)c2c(C(=O)O)[nH]c3ccccc23)ccc1OCc1ccccc1 |  | inconclusive: 2.82 µM [inhibitor, partial curve, poor fit] |
| CCOC(=O)N1CCc2c(sc3c2c(=O)n(CCc2ccccc2)c(=O)n3Cc2ccc(F)cc2)C1 | inactive: -10.1% |  |
| COc1ccccc1N(CC(=O)NCC1CCCO1)C(=O)CNS(=O)(=O)c1ccc(C)cc1 (stereo not drawn) |  | inconclusive: 31.6 µM [inhibitor, single point] |
| Cc1ccccc1S(=O)(=O)N1[C@@H](c2ccc(Br)cc2)C(C(=O)O)=CC[C@H]1c1ccc(Cl)cc1 |  | inconclusive: 39.8 µM [inhibitor, single point] |
| Oc1ccc(/C=N/N(Cc2ccccc2)c2ccccc2)c(O)c1O |  | inconclusive: 31.6 µM [inhibitor, partial curve] |
| Cc1c(C#N)c(NC(=O)c2cccc(Cl)c2)n(Cc2ccccc2)c1C |  | inconclusive: 12.6 µM [inhibitor, partial curve] |
| CN1CCN(c2nc3ccccn3c(=O)c2C=C(C#N)C#N)CC1 | inactive: -15.5% |  |
| CC(C)(C)c1ccc(Oc2ccc(NC(=O)c3ccco3)cn2)cc1 |  | inconclusive: 39.8 µM [inhibitor, single point] |
| C=CCNc1nc(C(=O)OCC(=O)c2ccccc2)cs1 |  | inconclusive: 8.91 µM [inhibitor, single point] |
| Cc1sc(NC(=O)Cn2nc(C(F)(F)F)cc2C)c(C(=O)OC(C)C)c1C |  | inconclusive: 39.8 µM [inhibitor, single point] |
| Cc1ccccc1NS(=O)(=O)c1ccc(Br)s1 | inactive: -18.1% |  |
| O=C(NCc1ccccc1OC(F)(F)F)C1CCC(=O)N(Cc2ccccn2)C1 (stereo not drawn) | inactive: -4.59% |  |
| COc1ccc(O)c(/C=N/NC(=O)c2c(C)nnn2-c2nonc2N)c1 |  | inconclusive: 20 µM [inhibitor, partial curve] |

As entered above.
Potency with Cc1cc(N2CCCC2=O)ccc1S(=O)(=O)Nc1c(C)nn(C)c1C is entered as inconclusive: 39.8 µM [inhibitor, single point]
Potency with Cc1ccc(Cn2nnc(C(=O)Nc3ccc(F)c(F)c3)c2N)cc1 is entered as inconclusive: 22.4 µM [inhibitor, single point]
Potency with CC(C)NS(=O)(=O)c1ccc2nc(NC(=O)c3cncc(Br)c3)sc2c1 is entered as inconclusive: 39.8 µM [inhibitor, single point]

(list continues)

| SMILES | activity change, negative = inhibition | Potency |
| --- | --- | --- |
| COCC(=O)Nc1ccc(-c2cn3cccnc3n2)cc1 |  | inconclusive: 25.1 µM [inhibitor, single point] |
| Cc1ccc(/C(N)=N/OC(=O)C(C)c2ccc([N+](=O)[O-])cc2)cc1 (stereo not drawn) |  | inconclusive: 31.6 µM [inhibitor, single point] |
| CC1Cc2ccccc2N1C(=O)COC(=O)c1ccccc1NCCO (stereo not drawn) |  | inconclusive: 28.2 µM [inhibitor, single point] |
| COc1ccc([C@@]2(O)c3c(ccc(CC=C(C)C)c3O)NC(=O)[C@@H]2OC)cc1 |  | inconclusive: 0.1 µM [inhibitor, full curve, poor fit] |
| O=[N+]([O-])c1cccc(-c2nc3ccccc3s/c2=N/O)c1 |  | inconclusive: 35.5 µM [inhibitor, single point] |
| CCOc1ccc(C2C=C(c3ccc(F)cc3)Nc3ncnn32)cc1 (stereo not drawn) |  | inconclusive: 39.8 µM [inhibitor, single point] |
| CCc1ccc(NC(=O)CS(=O)CC(=O)NCCCc2ccccc2)cc1 (stereo not drawn) |  | inconclusive: 2.82 µM [inhibitor, full curve] |
| COC(=O)C1=C(C)N=C2SC(C#N)=C(N)N2C1c1cc(OC)c(OC)c(OC)c1 (stereo not drawn) |  | inconclusive: 0.631 µM [inhibitor, single point] |
| CC(C)(C)c1ccc(S(=O)(=O)NCC(=O)Nc2ccc(-c3nc4ccccc4s3)cc2)cc1 |  | inconclusive: 7.08 µM [inhibitor, single point] |
| CCC1(c2ccc(F)cc2)NC(=O)N(CC(=O)Nc2cc(C)on2)C1=O (stereo not drawn) | inactive: -4.23% |  |
| CCc1ccc(NC(=O)Nc2ccsc2C(=O)OC)cc1 |  | inconclusive: 35.5 µM [inhibitor, partial curve] |
| COCc1cc(C)nc2sc(C(=O)Nc3nccs3)c(N)c12 |  | inconclusive: 35.5 µM [inhibitor, single point] |
| NS(=O)(=O)c1ccc(NCc2ccccc2OCc2ccc(F)cc2)cc1 |  | inconclusive: 6.31 µM [inhibitor, single point] |
| CCOc1ccc(N(C(C)C(=O)N2CCCC2)S(C)(=O)=O)cc1 (stereo not drawn) | inactive: -1.34% |  |
| Nc1scc2c(C(=O)N/N=C/c3ccc(Cl)cc3)nn(-c3ccccc3)c(=O)c12 |  | inconclusive: 39.8 µM [inhibitor, single point] |
| COc1ccc2c(c1)nc(SCC(O)c1ccccc1)n2C (stereo not drawn) | inactive: -5.01% |  |
| Cc1ccc(S(=O)(=O)n2cnc3cc([N+](=O)[O-])ccc32)cc1C |  | inconclusive: 10 µM [inhibitor, partial curve, poor fit] |
| C[C@@H]1COC(=O)[C@@H](Cc2ccc(F)cc2)C/C=C\C[C@@H](CC(=O)N(CCO)Cc2ccccc2)C(=O)N1 | inactive: 0.399% |  |
| COCCN(C(=O)Nc1ccc(OC)cc1)c1nc2ccccc2s1 |  | inconclusive: 6.31 µM [inhibitor, single point] |
| c1ccc(CNc2ccnc(-c3cccnc3)n2)cc1 |  | inconclusive: 31.6 µM [inhibitor, single point] |
| CCOc1cccc2sc(=NC(=O)c3ccc(S(=O)(=O)N4CCOCC4)cc3)n(C)c12 |  | inconclusive: 1 µM [inhibitor, single point] |
